Data source: PubChem BioAssay AID1508597 (Cure First, 2020)
Aim: 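Knock-downs altering ovarian cancer cell survival with or without PARP inhibitor rucaparib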 (primary screen). System: human ovarian carcinoma lines grown from tumours: OCI-P5x (papillary serous) and OCI-C5x (clear cell). Knock-down reagent: siRNA pool against human genes, 1.25 pmol siRNA per well. Time to read-out: 72 h or 96 h, depending on the cell culture. Conditions: rucaparib 20 µM (about IC30) or vehicle, present until read-out. Rucaparib or vehicle: Vehicle. Cell line: OCI-P5x (serous). Read-out: 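ATP luminescence measured at 72 or 96 h according to the culture, then normalised and expressed as percent viability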. Direction: viability, normalised: higher = more viable cells remaining. Active means: 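a well counts as a hit if its normalised viability is under 80 percent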. Meaning of the calls: active = viability under 80%; inactive = viability 80% or more.
Shown is a random part of the about 2,100 reagents, in one setting of the screen. 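Calls flag viability under 80% in either arm, not effects specific to rucaparib; the reference for percent is not stated.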 Unmarked entries are inactive. The record does not give: the 100% reference.

TDRD12 (GeneID 91646), technical replicate 1 | viability, normalised (%) = 70 (active)
TDRD12 (GeneID 91646), technical replicate 2 | viability, normalised (%) = 66.1 (active)
TDRD12 (GeneID 91646), technical replicate 3 | viability, normalised (%) = 79.8 (active)
PDE9A (GeneID 5152), technical replicate 1 | viability, normalised (%) = 70.3 (active)
PDE9A (GeneID 5152), technical replicate 2 | viability, normalised (%) = 53.4 (active)
PDE9A (GeneID 5152), technical replicate 3 | viability, normalised (%) = 76.2 (active)
ING2 (GeneID 3622), technical replicate 1 | viability, normalised (%) = 94.8
ING2 (GeneID 3622), technical replicate 2 | viability, normalised (%) = 80.7
ING2 (GeneID 3622), technical replicate 3 | viability, normalised (%) = 105
MYBL2 (GeneID 4605), technical replicate 1 | viability, normalised (%) = 51.3 (active)
MYBL2 (GeneID 4605), technical replicate 2 | viability, normalised (%) = 53.6 (active)
MYBL2 (GeneID 4605), technical replicate 3 | viability, normalised (%) = 58.8 (active)
PDE7A (GeneID 5150), technical replicate 1 | viability, normalised (%) = 66.7 (active)
PDE7A (GeneID 5150), technical replicate 2 | viability, normalised (%) = 63.8 (active)
PDE7A (GeneID 5150), technical replicate 3 | viability, normalised (%) = 68.1 (active)
SFN (GeneID 2810), technical replicate 1 | viability, normalised (%) = 71.8 (active)
SFN (GeneID 2810), technical replicate 2 | viability, normalised (%) = 79.6 (active)
SFN (GeneID 2810), technical replicate 3 | viability, normalised (%) = 102
EPHA3 (GeneID 2042), technical replicate 1 | viability, normalised (%) = 80.5
EPHA3 (GeneID 2042), technical replicate 2 | viability, normalised (%) = 59.2 (active)
EPHA3 (GeneID 2042), technical replicate 3 | viability, normalised (%) = 61.2 (active)
MPP4 (GeneID 58538), technical replicate 1 | viability, normalised (%) = 66.5 (active)
MPP4 (GeneID 58538), technical replicate 2 | viability, normalised (%) = 71.6 (active)
MPP4 (GeneID 58538), technical replicate 3 | viability, normalised (%) = 77 (active)
GJA10 (GeneID 84694), technical replicate 1 | viability, normalised (%) = 37.7 (active)
GJA10 (GeneID 84694), technical replicate 2 | viability, normalised (%) = 71.4 (active)
GJA10 (GeneID 84694), technical replicate 3 | viability, normalised (%) = 117
CDK4 (GeneID 1019), technical replicate 1 | viability, normalised (%) = 94.2
CDK4 (GeneID 1019), technical replicate 2 | viability, normalised (%) = 83.4
CDK4 (GeneID 1019), technical replicate 3 | viability, normalised (%) = 85.3
SRPK2 (GeneID 6733), technical replicate 1 | viability, normalised (%) = 88.8
SRPK2 (GeneID 6733), technical replicate 2 | viability, normalised (%) = 78.2 (active)
SRPK2 (GeneID 6733), technical replicate 3 | viability, normalised (%) = 81.5

Look-ups from the list:
Entry for SRPK2 (GeneID 6733), technical replicate 3 under “viability, normalised (%)”: 81.5
SRPK2 (GeneID 6733), technical replicate 2, viability, normalised (%) = 78.2 (active)
Under “viability, normalised (%)”, EPHA3 (GeneID 2042), technical replicate 3 is entered as 61.2 (active)
